“And” between values parts separate entries of the source, which are not always exact repeats. Equal values may be shown once. Where a name gives a salt, the structure may show the parent alone. The list shows a part of the results. This data set is noisy: repeats of one test often differ as much as different tests do.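 Human U-2 OS cells stably expressing a GFP sensor with a nuclear import signal and classical export signal were transfected to produce PR50, a 50-repeat proline–arginine dipeptide from ALS/FTD gene C9ORF72. Nuclear-minus-cytoplasm GFP was scaled from DMSO (low) to PR-only (high), scored against plate test wells; strongly negative scores marked PR-reversing hits.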
system: U-2 OS NCT-C biosensor cells expressing PR50; test: Z-score of normalised NCT-C biosensor translocation index in PR50-expressing cells; higher = more nuclear biosensor (more disrupted nuclear export); settings: 3 µM; 24 h

Structure (SMILES)	Z-score
Cc1cccc(Nc2ccncc2S(=O)(=O)NC(=O)NC(C)C)c1 [Torsemide]	inactive: -0.112
CSc1c(C)c(SC)n2ccncc12 [Oltipraz metabolite M2]	inactive: -1.41
COc1cc2ccc(=O)oc2cc1O [Scopoletin]	inactive: -0.19
CC1(C)O[C@@H]2[C@@H](CO[C@@]3(COS(N)(=O)=O)OC(C)(C)O[C@@H]23)O1 [Topiramate]	inactive: -0.174
CN(C)c1cc(NC(=O)CNC(C)(C)C)c(O)c2c1C[C@H]1C[C@H]3[C@H](N(C)C)C(O)=C(C(N)=O)C(=O)[C@@]3(O)C(O)=C1C2=O [Tigecycline]	inactive: 0.126
CCOC(=O)[C@@H](N)Cc1ccc(O)c(O)c1 [L-Dopa ethyl ester]	inactive: -0.151
O=C1Nc2ccc(I)cc2/C1=C/c1cc(Br)c(O)c(Br)c1	inactive: -0.0435
O=C1N=C(O)NC1(c1ccccc1)c1ccccc1 [Phenytoin sodium]	inactive: -0.288
COc1ccc2cc3[n+](cc2c1OC)CCc1cc2c(cc1-3)OCO2 [Berberine·HCl]	inactive: -0.681
Cc1c2oc3c(C)ccc(C(=O)N[C@@H]4C(=O)N[C@H](C(C)C)C(=O)N5CCC[C@H]5C(=O)N(C)CC(=O)N(C)[C@@H](C(C)C)C(=O)O[C@@H]4C)c3nc-2c(C(=O)N[C@@H]2C(=O)N[C@H](C(C)C)C(=O)N3CCC[C@H]3C(=O)N(C)CC(=O)N(C)[C@@H](C(C)C)C(=O)O[C@@H]2C)c(N)c1=O [Dactinomycin (= Actinomycin D)]	inactive: -1.49
Cc1nccn1CC1CCc2c(c3ccccc3n2C)C1=O (centres undefined) [Ondansetron]	inactive: 0.332
CC(=O)NC[C@H]1CN(c2ccc(N3CCOCC3)c(F)c2)C(=O)O1 [Linezolid]	inactive: 3.58
O=c1c2ccccc2[nH]c(=S)n1CCN1CCC(=C(c2ccc(F)cc2)c2ccc(F)cc2)CC1 [Diacylglycerol Kinase Inhibitor II]	inactive: -0.223
Cc1cccn2c(=O)c(-c3nnn[nH]3)cnc12 [Pemirolast Potassium]	inactive: -0.788
CCCc1c(OCCCOc2ccc(OCC(=O)O)cc2)ccc(C(C)=O)c1O	inactive: -0.0165
CC1=C(C(=O)O)N2C(=O)[C@@H](NC(=O)[C@H](N)c3ccccc3)[C@H]2SC1 [Cephalexin hydrate]	inactive: -0.462
CC1=C(C(=O)O)N2C(=O)[C@@H](NC(=O)[C@H](N)c3ccccc3)[C@H]2SC1 [Cephalexin Monohydrate]	inactive: -0.185
CN1CC(=O)N=C1NC(=O)Nc1cccc(Cl)c1 [Fenobam]	inactive: -0.106
CC(C)(C)OC(=O)Nc1ccc(-c2cc(C(=O)NCCCCCCC(=O)NO)no2)cc1	inactive: -0.185 and inactive: 6.25
CC(C)(C)NCC(O)COc1cccc2c1CC(O)C(O)C2 (centres undefined) [Nadolol]	inactive: -0.351
Cc1ccc(S(=O)(=O)/C=C/C#N)cc1	inactive: 0.165
COc1cc(-c2cc(-c3ccc(N4CCNCC4)cc3)cnc2C)cc(OC)c1OC	inactive: -0.682

Structure (SMILES)	Z-score
O=C(O)c1ccc(O)c2ncccc12	inactive: -1.26
Oc1ccccc1-c1cc(-c2ccccc2F)[nH]n1	inactive: 0.365
Nc1cc(N)c(N)cc1N [FAK Inhibitor 14]	inactive: 0.622
O=C(c1ccc(Cl)cc1Cl)n1nnc2ccccc21	active: -2.22
C=C1[C@H](CO)[C@@H](O)C[C@@H]1n1cnc2c(=O)[nH]c(N)nc21 [Entecavir]	inactive: -0.639
CC(=O)O[C@]1(C(C)=O)CC[C@H]2[C@@H]3C=C(C)C4=CC(=O)CC[C@]4(C)[C@H]3CC[C@@]21C [Megestrol Acetate]	inactive: 0.531
Cc1cccc(C2CN(C)CCc3c2cc(O)c(O)c3Cl)c1 (centres undefined)	inactive: -1.01
Nc1nc(=O)[nH]cc1F [Flucytosine]	inactive: 0.84
CC(C)(S)[C@H](N)C(=O)O [L-Penicillamine]	inactive: -1.14
Oc1cc(O)cc(/C=C/c2ccc(O)c(O)c2)c1 [Piceatannol]	inactive: -1.14
CC[C@@]1(O)C(=O)OCc2c1cc1n(c2=O)Cc2cc3c(CN(C)C)c(O)ccc3nc2-1 [Topotecan·HCl]	inactive: -0.21
CC[C@@]1(O)C(=O)OCc2c1cc1n(c2=O)Cc2cc3c(CN(C)C)c(O)ccc3nc2-1 [Topotecan hydrochloride hydrate]	inactive: 0.789
Nc1nnc(-c2cccc(Cl)c2Cl)c(N)n1 [Lamotrigine]	inactive: -0.143
Nc1nnc(-c2cccc(Cl)c2Cl)c(N)n1 [Lamotrigine isethionate]	inactive: -0.653
CN1[C@@H]2CC[C@H]1C[C@@H](OC(c1ccccc1)c1ccccc1)C2 [Benztropine mesylate]	inactive: 2.74
CN1[C@@H]2CC[C@H]1C[C@@H](OC(c1ccccc1)c1ccccc1)C2 [Benztropine Mesylate]	inactive: -0.0851
C[C@@H]1O[C@@H](OC[C@H]2O[C@@H](Oc3c(-c4ccc(O)c(O)c4)oc4cc(O)cc(O)c4c3=O)[C@H](O)[C@@H](O)[C@@H]2O)[C@H](O)[C@H](O)[C@H]1O [Rutin]	inactive: -0.303
Cn1cc(/C=C/C(=O)c2cccc(F)c2)cc1/C=C/C(=O)NO	inactive: -1.36
CC(=O)OCC(=O)[C@@]12OC3(CCCC3)O[C@@H]1C[C@H]1[C@@H]3CCC4=CC(=O)C=C[C@]4(C)[C@@]3(F)[C@@H](O)C[C@@]12C [Amcinonide]	inactive: -0.638
C/C(O)=C(\C#N)C(=O)Nc1ccc(C(F)(F)F)cc1 [Teriflunomide]	inactive: 0.0979
COc1nc(C)cnc1NS(=O)(=O)c1cccnc1-c1ccc(-c2nnco2)cc1 [Zibotentan]	inactive: -0.625
Nc1ccccc1NC(=O)CCCCCCC(=O)Nc1ccccc1	inactive: -1.27

Exported in markdown: entries from further up.

| Structure (SMILES) | Z-score |
| --- | --- |
| Oc1ccccc1-c1cc(-c2ccccc2F)[nH]n1 | inactive: 0.365 |
| Nc1cc(N)c(N)cc1N [FAK Inhibitor 14] | inactive: 0.622 |
| O=C(c1ccc(Cl)cc1Cl)n1nnc2ccccc21 | active: -2.22 |
